{"source": "patent US11958811B1", "about": "“1-[4,5-bis(4-bromophenyl)-1-hexyl-1H-imidazol-2-yl]-2-naphthol as an antimicrobial compound” (KING FAISAL UNIVERSITY, priority 2023, dated 2024)", "format_in_all_cases": "cell-based", "key": {"Escherichia coli": {"tested_on": "Escherichia coli", "assay": "Antimicrobial screening by agar dilution, E. Coli", "protocol": "(§1) The antimicrobial properties of the 1-[4,5-bis(4-bromophenyl)-1-hexyl-1H-imidazol-2-yl]-2-naphthol was studied by the method of agar dilution. Test solutions of each compound was prepared in concentration of 1% using dimethylformamide as a solvent then they were diluted in physiological solution to obtain the final experimental dilutions 1:100, 1:200, 1:400, 1:800. The effect of these substances was compared with furacillin in a controlled study. The testing microbes used were gram positive bacteria Staphylococcus aureus, gram negative bacteria Pseudomonas aeruginosa and Escherichia coli and Candida albicans fungi were taken. The experiments used for this survey were meat-pentonlu agar (EPA) for cultivation of bacteria and Saburo environment for fungi. Each experiment used 1 ml of test solution on each plate 500 min. Add 2 drops of emulsified with microbes feel. All experimental samples were taken from the agar after 10, 20, 40, 60 minutes in the environment on the basis of Patrk planted. Bacteria were cultivated at a temperature of 37° C. for 1 day and the mushroom was kept in a thermostat for […] at a temperature of 28° C. Then results were checked."}, "Staphylococcus aureus": {"tested_on": "Staphylococcus aureus", "assay": "Antimicrobial screening by agar dilution, St. Aereus", "protocol": "as §1"}, "Candida albicans": {"tested_on": "Candida albicans", "assay": "Antimicrobial screening by agar dilution, Candida albicans", "protocol": "as §1"}, "Pseudomonas aeruginosa": {"tested_on": "Pseudomonas aeruginosa", "assay": "Antimicrobial screening by agar dilution, Ps. Aeroqonaza", "protocol": "as §1"}, "[1]": {"settings": "dilution rate 1:100, exposure time 10 min"}, "[2]": {"settings": "dilution rate 1:100, exposure time 20 min"}, "[3]": {"settings": "dilution rate 1:100, exposure time 40 min"}, "[4]": {"settings": "dilution rate 1:100, exposure time 60 min"}, "[5]": {"settings": "dilution rate 1:200, exposure time 10 min"}, "[6]": {"settings": "dilution rate 1:200, exposure time 20 min"}, "[7]": {"settings": "dilution rate 1:200, exposure time 40 min"}, "[8]": {"settings": "dilution rate 1:200, exposure time 60 min"}, "[9]": {"settings": "dilution rate 1:400, exposure time 10 min"}, "[10]": {"settings": "dilution rate 1:400, exposure time 20 min"}, "[11]": {"settings": "dilution rate 1:400, exposure time 40 min"}, "[12]": {"settings": "dilution rate 1:400, exposure time 60 min"}, "[13]": {"settings": "dilution rate 1:800, exposure time 10 min"}, "[14]": {"settings": "dilution rate 1:800, exposure time 20 min"}, "[15]": {"settings": "dilution rate 1:800, exposure time 40 min"}, "[16]": {"settings": "dilution rate 1:800, exposure time 60 min"}}, "note": "At least one compound was matched to its structure with a doubt left.", "data": [{"compound": "NC(=O)N/N=C/c1ccc([N+](=O)[O-])o1", "note": "[Furacilin, furacillin]", "values": [{"measurement": "antimicrobial activity", "setting": "Escherichia coli; [1]", "value": "−"}, {"measurement": "antimicrobial activity", "setting": "Escherichia coli; [2]", "value": "−"}, {"measurement": "antimicrobial activity", "setting": "Escherichia coli; [3]", "value": "−"}, {"measurement": "antimicrobial activity", "setting": "Escherichia coli; [4]", "value": "−"}, {"measurement": "antimicrobial activity", "setting": "Escherichia coli; [5]", "value": "+"}, {"measurement": "antimicrobial activity", "setting": "Escherichia coli; [6]", "value": "+"}, {"measurement": "antimicrobial activity", "setting": "Escherichia coli; [7]", "value": "+"}, {"measurement": "antimicrobial activity", "setting": "Escherichia coli; [8]", "value": "+"}, {"measurement": "antimicrobial activity", "setting": "Escherichia coli; [9]", "value": "+"}, {"measurement": "antimicrobial activity", "setting": "Escherichia coli; [10]", "value": "+"}, {"measurement": "antimicrobial activity", "setting": "Escherichia coli; [11]", "value": "+"}, {"measurement": "antimicrobial activity", "setting": "Escherichia coli; [12]", "value": "+"}, {"measurement": "antimicrobial activity", "setting": "Escherichia coli; [13]", "value": "+"}, {"measurement": "antimicrobial activity", "setting": "Escherichia coli; [14]", "value": "+"}, {"measurement": "antimicrobial activity", "setting": "Escherichia coli; [15]", "value": "+"}, {"measurement": "antimicrobial activity", "setting": "Escherichia coli; [16]", "value": "+"}, {"measurement": "antimicrobial activity", "setting": "Staphylococcus aureus; [1]", "value": "−"}, {"measurement": "antimicrobial activity", "setting": "Staphylococcus aureus; [2]", "value": "−"}, {"measurement": "antimicrobial activity", "setting": "Staphylococcus aureus; [3]", "value": "−"}, {"measurement": "antimicrobial activity", "setting": "Staphylococcus aureus; [4]", "value": "−"}, {"measurement": "antimicrobial activity", "setting": "Staphylococcus aureus; [5]", "value": "+"}, {"measurement": "antimicrobial activity", "setting": "Staphylococcus aureus; [6]", "value": "+"}, {"measurement": "antimicrobial activity", "setting": "Staphylococcus aureus; [7]", "value": "+"}, {"measurement": "antimicrobial activity", "setting": "Staphylococcus aureus; [8]", "value": "+"}, {"measurement": "antimicrobial activity", "setting": "Staphylococcus aureus; [9]", "value": "+"}, {"measurement": "antimicrobial activity", "setting": "Staphylococcus aureus; [10]", "value": "+"}, {"measurement": "antimicrobial activity", "setting": "Staphylococcus aureus; [11]", "value": "+"}, {"measurement": "antimicrobial activity", "setting": "Staphylococcus aureus; [12]", "value": "+"}, {"measurement": "antimicrobial activity", "setting": "Staphylococcus aureus; [13]", "value": "+"}, {"measurement": "antimicrobial activity", "setting": "Staphylococcus aureus; [14]", "value": "+"}, {"measurement": "antimicrobial activity", "setting": "Staphylococcus aureus; [15]", "value": "+"}, {"measurement": "antimicrobial activity", "setting": "Staphylococcus aureus; [16]", "value": "+"}, {"measurement": "antimicrobial activity", "setting": "Candida albicans; [1]", "value": "−"}, {"measurement": "antimicrobial activity", "setting": "Candida albicans; [2]", "value": "−"}, {"measurement": "antimicrobial activity", "setting": "Candida albicans; [3]", "value": "+"}, {"measurement": "antimicrobial activity", "setting": "Candida albicans; [4]", "value": "+"}, {"measurement": "antimicrobial activity", "setting": "Candida albicans; [5]", "value": "+"}, {"measurement": "antimicrobial activity", "setting": "Candida albicans; [6]", "value": "+"}, {"measurement": "antimicrobial activity", "setting": "Candida albicans; [7]", "value": "+"}, {"measurement": "antimicrobial activity", "setting": "Candida albicans; [8]", "value": "+"}, {"measurement": "antimicrobial activity", "setting": "Candida albicans; [9]", "value": "+"}, {"measurement": "antimicrobial activity", "setting": "Candida albicans; [10]", "value": "+"}, {"measurement": "antimicrobial activity", "setting": "Candida albicans; [11]", "value": "+"}, {"measurement": "antimicrobial activity", "setting": "Candida albicans; [12]", "value": "+"}, {"measurement": "antimicrobial activity", "setting": "Candida albicans; [13]", "value": "+"}, {"measurement": "antimicrobial activity", "setting": "Candida albicans; [14]", "value": "+"}, {"measurement": "antimicrobial activity", "setting": "Candida albicans; [15]", "value": "+"}, {"measurement": "antimicrobial activity", "setting": "Candida albicans; [16]", "value": "+"}, {"measurement": "antimicrobial activity", "setting": "Pseudomonas aeruginosa; [1]", "value": "+"}, {"measurement": "antimicrobial activity", "setting": "Pseudomonas aeruginosa; [2]", "value": "+"}, {"measurement": "antimicrobial activity", "setting": "Pseudomonas aeruginosa; [3]", "value": "+"}, {"measurement": "antimicrobial activity", "setting": "Pseudomonas aeruginosa; [4]", "value": "+"}, {"measurement": "antimicrobial activity", "setting": "Pseudomonas aeruginosa; [5]", "value": "+"}, {"measurement": "antimicrobial activity", "setting": "Pseudomonas aeruginosa; [6]", "value": "+"}, {"measurement": "antimicrobial activity", "setting": "Pseudomonas aeruginosa; [7]", "value": "+"}, {"measurement": "antimicrobial activity", "setting": "Pseudomonas aeruginosa; [8]", "value": "+"}, {"measurement": "antimicrobial activity", "setting": "Pseudomonas aeruginosa; [9]", "value": "+"}, {"measurement": "antimicrobial activity", "setting": "Pseudomonas aeruginosa; [10]", "value": "+"}, {"measurement": "antimicrobial activity", "setting": "Pseudomonas aeruginosa; [11]", "value": "+"}, {"measurement": "antimicrobial activity", "setting": "Pseudomonas aeruginosa; [12]", "value": "+"}, {"measurement": "antimicrobial activity", "setting": "Pseudomonas aeruginosa; [13]", "value": "+"}, {"measurement": "antimicrobial activity", "setting": "Pseudomonas aeruginosa; [14]", "value": "+"}, {"measurement": "antimicrobial activity", "setting": "Pseudomonas aeruginosa; [15]", "value": "+"}, {"measurement": "antimicrobial activity", "setting": "Pseudomonas aeruginosa; [16]", "value": "+"}]}]}
